Data on 1 compound can be found in patent publication US20230293599A1, “BACTERIAL COMPOSITIONS WITH ANTI-INFLAMMATORY ACTIVITY” (Universiteit Gent, priority 2020, published 2023).

Common to all, as to settings: 35 hours, absorbance 590 nm, n = 1; cells without values AUC < 50
One assay has as its system S. aureus. Format: cell-based, Staphylococcus aureus. Here is the method:
(§1) Using Phenotype Microarray (PM) panels (Biolog), the influence of 190 carbon sources on the growth of the potential probiotic species R. mucilaginosa, R. dentocariosa, R. gilardii, G. haemolysans, and common respiratory pathogens P. aeruginosa, and S. aureus was determined. PM1 and PM2 panels (Biolog) were inoculated according to the manufacturer's instructions. Growth curves were generated for 35 hours by measuring the absorbance at 590 nm using an EnVision (Perkin Elmer) plate reader.

The test system of the next assay is P. aeruginosa. Put plainly: Biolog Phenotype Microarray PM1-2 growth on carbon sources. In kind it is cell-based, Pseudomonas aeruginosa. As to the method: as §1
A further assay relates to R. mucilaginosa. Described as above. Format: cell-based, Rothia mucilaginosa. As to the method: as §1

Turning to `NCCC[C@H](N)C(=O)O` [L-Ornithine], the “AUC of growth curve, S. aureus” value in the assay with S. aureus was 760.9. Moreover, the “AUC of growth curve, P. aeruginosa” value in the assay on P. aeruginosa came to 66.2. Also, in the assay on R. mucilaginosa, the “AUC of growth curve, R. mucilaginosa” value was 56.2.
